According to PubChem BioAssay AID248 (DTP/NCI, 2004):
The list does not hold the whole screen: it is rich in T/C values a quarter to a half above the control, in often repeated tests (any T/C) and in doses without a T/C. Further doses and runs are listed elsewhere. T/C is the treated group as % of the vehicle group. Some entries give survivors of the animals treated and no T/C: the source files T/C as zero there, which appears to mark a toxic dose or a test without result, not a measured value. Some survivor counts are full or nearly so, which does not show that the dose was tolerated: survival well below the control is almost never listed, so the zero probably covers shortened survival too. Counts of survivors are from the toxicity check (mostly the fifth day) where no day follows; animals may have died later. Schedules are NCI's codes, read here as Q, the interval in days (D) or hours (H), X, the number of doses. Some schedule codes hold Z or #, which are not explained here. Where survival is the endpoint, the PubChem record calls one and a half times the control and up active, and a quarter to a half above the control has no call in these data; cut-offs in other NCI protocols can differ.

Test system: L1210 leukemia ip in BDF1 mice, survival T/C
Assay: NCI In Vivo Anticancer Drug Screen. Data for tumor model L1210 Leukemia (intraperitoneal) in B6D2F1 (BDF1) mice
Conditions: T/C endpoint: mean survival time, higher T/C = longer survival
[1] = dose: 400.0 mg/kg/injection, schedule: Q04DX003 (ip), vehicle: saline with Tween-80
[2] = dose: 400.0 mg/kg/injection, schedule: Q01DX001 (ip), vehicle: saline
[3] = dose: 400.0 mg/kg/injection, schedule: Q04DX003 (ip), vehicle: Klucel (hydroxypropylcellulose) (HPC)
[4] = dose: 200.0 mg/kg/injection, schedule: Q01DX001 (ip), vehicle: saline
[5] = dose: 200.0 mg/kg/injection, schedule: Q01DX009 (ip), vehicle: saline with Tween-80
[6] = dose: 200.0 mg/kg/injection, schedule: Q04DX003 (ip), vehicle: saline with Tween-80

**Q.** How did the survivor count (dose: 100.0 mg/kg/injection, schedule: Q01DX009 (ip), vehicle: Klucel (hydroxypropylcellulose) (HPC)) turn out when `[Cl][Sb]([Cl])([c]1ccccc1)([c]1ccccc1)[c]1ccccc1` was run?
**A.** 5 of 6

**Q.** And the survivor count (dose: 100.0 mg/kg/injection, schedule: Q04DX002 (ip), vehicle: saline with Tween-80)?
**A.** 1 of 3

**Q.** What about the survivor count (dose: 200.0 mg/kg/injection, schedule: Q01DX009 (ip), vehicle: Klucel (hydroxypropylcellulose) (HPC)) of the same compound?
**A.** 0 of 6

**Q.** What about the survivor count (dose: 200.0 mg/kg/injection, schedule: Q04DX002 (ip), vehicle: saline with Tween-80) of the same compound?
**A.** 1 of 3

**Q.** What about the survivor count (dose: 400.0 mg/kg/injection, schedule: Q04DX002 (ip), vehicle: saline with Tween-80) of the same compound?
**A.** 1 of 3

**Q.** For `O=P(CCO)(c1ccccc1)c1ccccc1`, which survivor count [1] is on record?
**A.** 3 of 6

**Q.** For `Cc1ccc(O)c(CCCO)c1`, which survivor count [2] is on record?
**A.** 0 of 4

**Q.** With `O=C(Nc1ccc(NC(=O)Nc2ccc(C3=NCCN3)cc2)cc1)Nc1ccc(C2=NCCN2)cc1` as the compound, how does the survivor count (dose: 375.0 mg/kg/injection, schedule: Q01DX Z (ip), vehicle: carboxymethylcellulose (CMC)) read?
**A.** 3 of 6

**Q.** With `CCOC(=O)C(Cl)CCl` (stereo not drawn) as the compound, how does the survivor count [3] read?
**A.** 4 of 6

**Q.** Which T/C (dose: 200.0 mg/kg/injection, schedule: Q03DX002 (ip), vehicle: saline with Tween-80) does the source give for `CS(=O)C(Cl)C(O)c1ccccc1` (stereo not drawn) here?
**A.** 128 % of control

**Q.** What does the source list for `CCN(CC)CCCC(C)Nc1ccnc(/C=C/c2ccc(C(F)(F)F)cc2)c1` (stereo not drawn)?
**A.** survivor count [4]: 1 of 6; survivor count [2]: 0 of 6

**Q.** What does the source list for `N#Cc1ccccc1NC(=S)Nc1ccc([N+](=O)[O-])cc1`?
**A.** survivor count (dose: 100.0 mg/kg/injection, schedule: Q01DX009 (ip), vehicle: saline with Tween-80): 3 of 3; survivor count [5]: 0 of 3

**Q.** `Cc1cc(C)c(B2OB(c3c(C)cc(C)cc3C)O2)c(C)c1` was tested. Which survivor count (dose: 400.0 mg/kg/injection, schedule: Q01DX009 (ip), vehicle: Klucel (hydroxypropylcellulose) (HPC)) did it give?
**A.** 0 of 6

**Q.** For `S=C1SCN(c2ccccc2)CN1c1ccccc1`, which survivor count [1] is on record?
**A.** 6 of 6

**Q.** How did the survivor count (dose: 225.0 mg/kg/injection, schedule: Q01DX009 (ip), vehicle: saline with Tween-80) turn out when `CCCCNC(C)(C)C(SS)c1ccco1` (stereo not drawn) was run?
**A.** 1 of 6

**Q.** And the survivor count (dose: 335.0 mg/kg/injection, schedule: Q01DX009 (ip), vehicle: saline with Tween-80)?
**A.** 1 of 6

**Q.** And the survivor count (dose: 400.0 mg/kg/injection, schedule: Q04DX003 (ip), vehicle: alcohol)?
**A.** 4 of 6

**Q.** For `Ic1ccc(NC2=NCCN2)c2ccccc12`, which survivor count (dose: 200.0 mg/kg/injection, schedule: Q04DX003 (ip), vehicle: Klucel (hydroxypropylcellulose) (HPC)) is on record?
**A.** 1 of 6

**Q.** What about the survivor count [3] of the same compound?
**A.** 0 of 6

**Q.** Which survivor count (dose: 80.0 mg/kg/injection, schedule: Q01DX001 (ip), vehicle: saline) does the source give for `CC(=O)Nc1ncccc1C` here?
**A.** 0 of 6

**Q.** And the survivor count (dose: 100.0 mg/kg/injection, schedule: Q01DX001 (ip), vehicle: saline)?
**A.** 0 of 6

**Q.** And the survivor count [4]?
**A.** 0 of 6

**Q.** What about the survivor count [2] of the same compound?
**A.** 0 of 6

**Q.** With `COC(=O)C1=C(O)CN(C)C1=O` as the compound, how does the survivor count [4] read?
**A.** 4 of 6

**Q.** And the survivor count (dose: 225.0 mg/kg/injection, schedule: Q01DX009 (ip), vehicle: saline)?
**A.** 0 of 6

**Q.** And the survivor count [2]?
**A.** 0 of 6

**Q.** For `CCC[CH2][Sn]([CH2]CCC)([CH2]CCC)[CH2]CC(N)=O`, which survivor count (dose: 200.0 mg/kg/injection, schedule: Q01DX009 (ip), vehicle: saline) is on record?
**A.** 1 of 3

**Q.** How did the survivor count [5] turn out when `CC1(C)OCC(CO)([N+](=O)[O-])CO1` was run?
**A.** 3 of 6

**Q.** What about the T/C [6] of the same compound?
**A.** 125 % of control

**Q.** What about the survivor count [6] of the same compound?
**A.** 1 of 6

**Q.** What about the survivor count (dose: 300.0 mg/kg/injection, schedule: Q04DX003 (ip), vehicle: saline with Tween-80) of the same compound?
**A.** 0 of 6

**Q.** What about the survivor count [1] of the same compound?
**A.** 0 of 6

**Q.** With `Cc1cccc(NC(=O)OC/C=C/c2ccccc2)c1` as the compound, how does the survivor count (dose: 400.0 mg/kg/injection, schedule: Q01DX009 (ip), vehicle: saline with Tween-80) read?
**A.** 3 of 3

**Q.** What does the source list for `CCNCc1ccc(OC)cc1`?
**A.** survivor count [6]: 2 of 6; survivor count [1]: 0 of 6

**Q.** How did the survivor count (dose: 1600.0 mg/kg/injection, schedule: Q01DX Z (ip), vehicle: saline) turn out when `CC(=O)Nc1cc2c(cc1Br)-c1ccc(F)cc1C2` was run?
**A.** 1 of 6
